# Results are given in words; binding and its absence hold for the method and conditions named. Binding seen in cells or lysates may run through a third protein. Some results given as binding are weak or reduced against the parent protein; the word gives no strength.
# Protein sequences, listed by entry. Tags and fused reporters are not part of them. Residues count along the entry.
# UniProt P28799, residues 18-593: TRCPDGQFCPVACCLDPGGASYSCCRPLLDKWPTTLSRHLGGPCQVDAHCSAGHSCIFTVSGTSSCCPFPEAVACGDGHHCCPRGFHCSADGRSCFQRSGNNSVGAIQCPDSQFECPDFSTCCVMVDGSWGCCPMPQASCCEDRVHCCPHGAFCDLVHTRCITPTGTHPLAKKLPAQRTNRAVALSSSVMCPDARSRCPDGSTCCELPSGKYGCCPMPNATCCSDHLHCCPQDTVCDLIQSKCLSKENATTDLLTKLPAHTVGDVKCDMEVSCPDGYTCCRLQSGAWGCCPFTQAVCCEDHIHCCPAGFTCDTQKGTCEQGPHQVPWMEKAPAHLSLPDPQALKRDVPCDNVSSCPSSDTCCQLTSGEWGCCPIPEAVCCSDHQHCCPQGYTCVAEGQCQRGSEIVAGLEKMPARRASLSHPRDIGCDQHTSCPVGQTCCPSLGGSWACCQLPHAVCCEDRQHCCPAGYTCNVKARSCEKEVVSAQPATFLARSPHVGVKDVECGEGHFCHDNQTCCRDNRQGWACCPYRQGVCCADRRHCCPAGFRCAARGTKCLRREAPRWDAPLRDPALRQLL
# UniProt Q9Y6K9: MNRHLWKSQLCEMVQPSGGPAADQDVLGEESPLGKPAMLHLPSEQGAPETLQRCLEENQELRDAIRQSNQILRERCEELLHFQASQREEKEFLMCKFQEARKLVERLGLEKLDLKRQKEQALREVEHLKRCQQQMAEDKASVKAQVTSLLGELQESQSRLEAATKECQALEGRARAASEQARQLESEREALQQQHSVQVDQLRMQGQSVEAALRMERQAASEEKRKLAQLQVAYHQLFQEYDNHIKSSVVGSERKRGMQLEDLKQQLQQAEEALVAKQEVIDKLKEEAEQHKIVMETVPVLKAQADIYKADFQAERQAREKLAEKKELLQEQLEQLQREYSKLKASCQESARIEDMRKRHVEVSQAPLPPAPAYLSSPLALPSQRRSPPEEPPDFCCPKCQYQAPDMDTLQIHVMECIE
# UniProt O88522: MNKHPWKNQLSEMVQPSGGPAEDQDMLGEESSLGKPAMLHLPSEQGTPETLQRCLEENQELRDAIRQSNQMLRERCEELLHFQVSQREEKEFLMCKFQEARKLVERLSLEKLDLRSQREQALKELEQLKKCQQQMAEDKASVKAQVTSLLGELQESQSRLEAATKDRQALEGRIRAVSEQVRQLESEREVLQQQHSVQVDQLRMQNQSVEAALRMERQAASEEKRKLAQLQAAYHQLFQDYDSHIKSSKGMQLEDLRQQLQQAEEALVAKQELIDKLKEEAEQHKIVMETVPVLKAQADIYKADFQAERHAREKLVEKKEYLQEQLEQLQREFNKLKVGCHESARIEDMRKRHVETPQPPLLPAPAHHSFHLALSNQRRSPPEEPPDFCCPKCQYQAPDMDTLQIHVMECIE
# B1: A20, endogenous in mouse bone marrow-derived macrophages (enzyme, UniProt Q60769 1-775)
# chain: MAEQLLPQALYLSNMRKAVKIRERTPEDIFKPTNGIIYHFKTMHRYTLEMFRTCQFCPQFREIIHKALIDRSVQASLESQKKLNWCREVRKLVALKTNGDGNCLMHAACQYMWGVQDTDLVLRKALCSTLKETDTRNFKFRWQLESLKSQEFVETGLCYDTRNWNDEWDNLVKMASADTPAARSGLQYNSLEEIHIFVLSNILRRPIIVISDKMLRSLESGSNFAPLKVGGIYLPLHWPAQECYRYPIVLGYDSQHFVPLVTLKDSGPELRAVPLVNRDRGRFEDLKVHFLTDPENEMKEKLLKEYLIVMEIPVQGWDHGTTHLINAAKLDEANLPKEINLVDDYFELVQHEYKKWQENSDQARRAAHAQNPLEPSTPQLSLMDIKCETPNCPFFMSVNTQPLCHECSERRQKNQSKLPKLNSKLGPEGLPGVGLGSSNWSPEETAGGPHSAPPTAPSLFLFSETTAMKCRSPGCPFTLNVQHNGFCERCHARQINASHTADPGKCQACLQDVTRTFNGICSTCFKRTTAEPSSSLTSSIPASCHQRSKSDPSQLIQSLTPHSCHRTGNVSPSGCLSQAARTPGDRAGTSKCRKAGCMYFGTPENKGFCTLCFIEYRENKQSVTASEKAGSPAPRFQNNVPCLGRECGTLGSTMFEGYCQKCFIEAQNQRFHEARRTEEQLRSSQHRDMPRTTQVASRLKCARASCKNILACRSEELCMECQHLSQRVGSVAHRGEPTPEEPPKQRCRAPACDHFGNAKCNGYCNECYQFKQMYG
# How the values were obtained:
# [1] = target: progranulin (PGRN), endogenous in HEK293 cells (human (endogenous in HEK293)) (UniProt P28799); test: co-IP
# [2] = target: FLAG-tagged full-length PGRN (UniProt P28799); test: co-IP; HEK293 cells co-transfected with tagged constructs, 24 h; lysed in RIPA buffer; lysates incubated with anti-FLAG or anti-HA antibodies overnight at 4°C, protein A/G agarose beads; western blot
# [3] = target: NF-κB essential modulator (NEMO), endogenous in HEK293 cells (human (endogenous in HEK293)) (UniProt Q9Y6K9); test: co-IP
# [4] = target: NEMO, endogenous in mouse bone marrow-derived macrophages (mouse (endogenous in BMDMs)) (UniProt O88522); test: co-IP
molecule,measurement,setting,value
"NF-κB essential modulator (NEMO), endogenous in HEK293 cells (from UniProt Q9Y6K9 1-419)",binding,[1],binds
Myc-tagged full-length NEMO (from UniProt Q9Y6K9 1-419),binding,[2],binds
"progranulin (PGRN), endogenous in HEK293 cells (from UniProt P28799 18-593)",binding,[3],binds
B1,binding,[4],binds

# Reference: article PMC6795447
